Assay results taken from paper doi:10.1101/2022.10.27.514150.
Results are given in words; binding and its absence hold for the method and conditions named. Binding seen in cells or lysates may run through a third protein. Some binding calls cover weakened binding; strength is not graded here. For part of these data: Tags and fused reporters may be left off the sequences shown. One block for each substance: values may come before it.

Amino acid sequences for entries named in this document (tags omitted). A change or cut given only in a name is not applied to a line headed by its entry.
UniProt Q08999: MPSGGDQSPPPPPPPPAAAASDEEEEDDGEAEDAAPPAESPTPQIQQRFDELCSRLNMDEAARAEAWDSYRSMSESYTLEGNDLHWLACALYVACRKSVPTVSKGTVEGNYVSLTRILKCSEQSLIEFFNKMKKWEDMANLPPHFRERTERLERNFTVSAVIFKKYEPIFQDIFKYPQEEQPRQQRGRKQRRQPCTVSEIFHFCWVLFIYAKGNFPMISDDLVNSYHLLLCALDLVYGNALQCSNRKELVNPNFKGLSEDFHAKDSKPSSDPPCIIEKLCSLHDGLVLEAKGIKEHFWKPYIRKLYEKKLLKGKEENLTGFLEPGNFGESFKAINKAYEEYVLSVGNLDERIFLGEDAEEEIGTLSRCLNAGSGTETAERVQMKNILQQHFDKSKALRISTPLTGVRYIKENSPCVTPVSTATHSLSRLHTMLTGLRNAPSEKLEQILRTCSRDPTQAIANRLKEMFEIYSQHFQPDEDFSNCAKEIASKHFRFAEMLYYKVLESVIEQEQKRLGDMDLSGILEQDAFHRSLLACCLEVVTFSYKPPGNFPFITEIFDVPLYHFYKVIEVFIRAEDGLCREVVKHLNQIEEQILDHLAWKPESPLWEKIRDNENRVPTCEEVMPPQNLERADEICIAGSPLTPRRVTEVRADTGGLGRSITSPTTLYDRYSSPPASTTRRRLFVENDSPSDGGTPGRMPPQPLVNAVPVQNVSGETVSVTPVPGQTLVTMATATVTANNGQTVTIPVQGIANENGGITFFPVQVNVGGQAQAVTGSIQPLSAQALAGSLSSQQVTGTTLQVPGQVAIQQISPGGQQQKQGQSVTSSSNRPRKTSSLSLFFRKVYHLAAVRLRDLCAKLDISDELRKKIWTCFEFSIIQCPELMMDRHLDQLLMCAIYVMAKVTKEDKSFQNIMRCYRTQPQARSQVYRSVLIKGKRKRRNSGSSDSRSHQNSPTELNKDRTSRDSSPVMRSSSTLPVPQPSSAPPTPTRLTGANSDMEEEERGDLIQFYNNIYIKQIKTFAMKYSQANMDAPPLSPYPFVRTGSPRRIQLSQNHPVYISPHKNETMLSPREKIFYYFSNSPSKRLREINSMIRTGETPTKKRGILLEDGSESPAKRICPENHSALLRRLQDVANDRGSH
UniProt P03129: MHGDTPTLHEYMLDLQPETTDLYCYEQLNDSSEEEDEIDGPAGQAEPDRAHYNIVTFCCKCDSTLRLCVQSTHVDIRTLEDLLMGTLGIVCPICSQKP
UniProt Q14186: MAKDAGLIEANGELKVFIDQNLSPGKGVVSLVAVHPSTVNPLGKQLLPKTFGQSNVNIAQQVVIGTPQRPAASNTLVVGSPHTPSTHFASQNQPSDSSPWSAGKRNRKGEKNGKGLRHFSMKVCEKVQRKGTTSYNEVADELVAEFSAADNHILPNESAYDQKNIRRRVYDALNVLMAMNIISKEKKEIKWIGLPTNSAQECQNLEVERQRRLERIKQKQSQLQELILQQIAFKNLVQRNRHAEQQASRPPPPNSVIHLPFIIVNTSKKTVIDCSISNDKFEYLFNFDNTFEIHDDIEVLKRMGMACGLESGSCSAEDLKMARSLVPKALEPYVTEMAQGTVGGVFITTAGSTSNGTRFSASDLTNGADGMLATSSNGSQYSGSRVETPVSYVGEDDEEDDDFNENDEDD
UniProt Q16254: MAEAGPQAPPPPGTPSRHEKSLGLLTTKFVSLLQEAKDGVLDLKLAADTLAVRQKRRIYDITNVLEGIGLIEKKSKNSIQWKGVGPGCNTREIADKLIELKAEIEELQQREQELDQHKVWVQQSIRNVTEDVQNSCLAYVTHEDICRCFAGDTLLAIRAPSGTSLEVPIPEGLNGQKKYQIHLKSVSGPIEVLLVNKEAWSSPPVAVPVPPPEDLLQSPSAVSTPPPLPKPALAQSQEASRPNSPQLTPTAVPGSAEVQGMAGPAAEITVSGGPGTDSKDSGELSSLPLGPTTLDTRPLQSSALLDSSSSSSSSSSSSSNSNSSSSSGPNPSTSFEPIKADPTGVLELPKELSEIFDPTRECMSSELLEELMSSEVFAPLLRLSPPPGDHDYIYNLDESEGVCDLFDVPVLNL

How the values were obtained:
[1] = biological target: T1, MBP-ΔNp73α FL (UniProt O15350); assay: pull-down
T1 sequence: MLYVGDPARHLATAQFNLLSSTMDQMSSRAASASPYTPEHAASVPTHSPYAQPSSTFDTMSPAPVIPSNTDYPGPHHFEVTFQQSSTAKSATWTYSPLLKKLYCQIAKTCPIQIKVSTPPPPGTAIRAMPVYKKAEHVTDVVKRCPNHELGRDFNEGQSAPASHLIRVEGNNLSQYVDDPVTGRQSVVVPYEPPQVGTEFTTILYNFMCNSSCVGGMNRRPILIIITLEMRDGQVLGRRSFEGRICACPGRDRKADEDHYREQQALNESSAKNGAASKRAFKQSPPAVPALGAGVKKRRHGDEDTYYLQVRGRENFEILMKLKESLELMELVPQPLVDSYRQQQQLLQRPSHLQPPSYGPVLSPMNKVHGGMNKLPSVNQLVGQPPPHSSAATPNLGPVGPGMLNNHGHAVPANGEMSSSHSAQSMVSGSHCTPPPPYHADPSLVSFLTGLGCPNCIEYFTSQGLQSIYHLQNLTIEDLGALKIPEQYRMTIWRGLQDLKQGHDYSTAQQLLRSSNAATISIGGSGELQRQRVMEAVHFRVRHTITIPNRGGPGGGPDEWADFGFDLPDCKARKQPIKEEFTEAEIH

[2] = biological target: T2, MBP-TAp73α FL (UniProt O15350); assay: pull-down
T2 sequence: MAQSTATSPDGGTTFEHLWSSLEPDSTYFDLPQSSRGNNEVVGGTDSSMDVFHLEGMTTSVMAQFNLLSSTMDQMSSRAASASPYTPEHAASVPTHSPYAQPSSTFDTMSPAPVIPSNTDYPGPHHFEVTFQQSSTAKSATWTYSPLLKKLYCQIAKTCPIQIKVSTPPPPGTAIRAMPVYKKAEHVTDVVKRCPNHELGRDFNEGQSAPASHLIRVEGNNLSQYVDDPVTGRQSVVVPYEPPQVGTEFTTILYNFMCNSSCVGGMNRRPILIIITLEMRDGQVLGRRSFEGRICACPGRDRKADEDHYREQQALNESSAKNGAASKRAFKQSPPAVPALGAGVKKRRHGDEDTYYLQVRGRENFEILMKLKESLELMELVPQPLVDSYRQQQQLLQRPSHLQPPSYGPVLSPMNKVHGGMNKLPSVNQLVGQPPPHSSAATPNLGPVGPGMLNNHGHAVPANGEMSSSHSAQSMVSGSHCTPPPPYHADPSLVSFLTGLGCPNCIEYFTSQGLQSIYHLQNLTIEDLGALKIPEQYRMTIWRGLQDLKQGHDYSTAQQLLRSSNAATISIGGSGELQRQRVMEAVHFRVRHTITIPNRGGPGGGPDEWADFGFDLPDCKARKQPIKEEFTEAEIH

[3] = biological target: Gluc2-p130 (human) (UniProt Q08999); assay: split reporter
[4] = biological target: T3, Gluc2-pRb (UniProt P06400); assay: split reporter
T3 sequence: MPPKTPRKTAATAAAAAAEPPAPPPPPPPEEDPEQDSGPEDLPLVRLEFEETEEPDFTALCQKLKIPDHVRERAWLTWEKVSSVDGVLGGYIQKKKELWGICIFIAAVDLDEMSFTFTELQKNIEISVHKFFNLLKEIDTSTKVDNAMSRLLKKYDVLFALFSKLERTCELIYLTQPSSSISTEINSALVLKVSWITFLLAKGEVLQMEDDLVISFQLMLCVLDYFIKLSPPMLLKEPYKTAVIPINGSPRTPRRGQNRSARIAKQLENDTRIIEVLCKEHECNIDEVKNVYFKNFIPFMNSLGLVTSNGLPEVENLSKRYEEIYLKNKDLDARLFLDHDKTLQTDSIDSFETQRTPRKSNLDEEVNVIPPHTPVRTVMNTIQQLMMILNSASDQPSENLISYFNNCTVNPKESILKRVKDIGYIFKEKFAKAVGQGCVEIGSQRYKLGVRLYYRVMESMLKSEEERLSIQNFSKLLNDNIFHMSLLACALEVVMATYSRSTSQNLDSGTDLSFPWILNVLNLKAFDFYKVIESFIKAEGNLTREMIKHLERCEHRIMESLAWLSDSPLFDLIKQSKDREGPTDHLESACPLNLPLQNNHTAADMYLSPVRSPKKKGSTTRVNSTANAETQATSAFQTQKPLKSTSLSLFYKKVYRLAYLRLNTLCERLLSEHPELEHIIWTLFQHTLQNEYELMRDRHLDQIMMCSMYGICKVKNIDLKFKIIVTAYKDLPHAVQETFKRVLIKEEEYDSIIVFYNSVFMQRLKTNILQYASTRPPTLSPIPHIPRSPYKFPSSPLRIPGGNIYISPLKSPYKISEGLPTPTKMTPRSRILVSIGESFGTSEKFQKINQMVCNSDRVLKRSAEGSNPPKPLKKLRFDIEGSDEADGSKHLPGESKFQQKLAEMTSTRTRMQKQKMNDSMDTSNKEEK

[5] = biological target: T4, Gluc2-p107 (UniProt P28749); assay: split reporter
T4 sequence: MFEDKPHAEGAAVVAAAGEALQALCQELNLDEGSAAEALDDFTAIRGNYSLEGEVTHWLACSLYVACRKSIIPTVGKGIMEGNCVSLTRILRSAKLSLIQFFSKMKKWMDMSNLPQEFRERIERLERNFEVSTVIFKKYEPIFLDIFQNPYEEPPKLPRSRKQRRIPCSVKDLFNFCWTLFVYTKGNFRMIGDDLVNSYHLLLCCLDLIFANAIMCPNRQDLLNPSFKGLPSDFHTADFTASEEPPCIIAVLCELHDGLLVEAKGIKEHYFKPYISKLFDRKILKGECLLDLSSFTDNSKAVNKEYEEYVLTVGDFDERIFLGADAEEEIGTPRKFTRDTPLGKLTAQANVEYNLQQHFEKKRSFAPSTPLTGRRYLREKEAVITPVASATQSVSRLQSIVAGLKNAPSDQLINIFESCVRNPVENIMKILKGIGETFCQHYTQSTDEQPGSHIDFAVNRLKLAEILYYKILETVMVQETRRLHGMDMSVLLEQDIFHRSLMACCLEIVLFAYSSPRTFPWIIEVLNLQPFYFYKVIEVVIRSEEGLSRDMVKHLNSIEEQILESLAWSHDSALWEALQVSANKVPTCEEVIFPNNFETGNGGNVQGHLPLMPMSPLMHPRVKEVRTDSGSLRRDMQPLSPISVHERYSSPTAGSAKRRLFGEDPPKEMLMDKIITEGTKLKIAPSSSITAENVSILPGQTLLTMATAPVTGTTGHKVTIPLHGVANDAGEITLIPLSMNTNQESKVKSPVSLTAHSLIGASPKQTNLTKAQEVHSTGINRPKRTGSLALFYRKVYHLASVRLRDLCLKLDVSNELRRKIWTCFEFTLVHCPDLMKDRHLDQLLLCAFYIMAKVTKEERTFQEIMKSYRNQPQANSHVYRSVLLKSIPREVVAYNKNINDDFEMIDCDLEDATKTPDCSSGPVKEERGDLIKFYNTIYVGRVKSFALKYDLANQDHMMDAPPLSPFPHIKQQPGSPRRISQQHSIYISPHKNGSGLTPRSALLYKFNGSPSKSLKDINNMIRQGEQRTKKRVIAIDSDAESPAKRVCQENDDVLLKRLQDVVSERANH

[6] = biological target: Gluc1-ΔNp73α FL (UniProt O15350); assay: split reporter
[7] = biological target: T5, Gluc1-TAp63α (UniProt Q9H3D4); assay: split reporter
T5 sequence: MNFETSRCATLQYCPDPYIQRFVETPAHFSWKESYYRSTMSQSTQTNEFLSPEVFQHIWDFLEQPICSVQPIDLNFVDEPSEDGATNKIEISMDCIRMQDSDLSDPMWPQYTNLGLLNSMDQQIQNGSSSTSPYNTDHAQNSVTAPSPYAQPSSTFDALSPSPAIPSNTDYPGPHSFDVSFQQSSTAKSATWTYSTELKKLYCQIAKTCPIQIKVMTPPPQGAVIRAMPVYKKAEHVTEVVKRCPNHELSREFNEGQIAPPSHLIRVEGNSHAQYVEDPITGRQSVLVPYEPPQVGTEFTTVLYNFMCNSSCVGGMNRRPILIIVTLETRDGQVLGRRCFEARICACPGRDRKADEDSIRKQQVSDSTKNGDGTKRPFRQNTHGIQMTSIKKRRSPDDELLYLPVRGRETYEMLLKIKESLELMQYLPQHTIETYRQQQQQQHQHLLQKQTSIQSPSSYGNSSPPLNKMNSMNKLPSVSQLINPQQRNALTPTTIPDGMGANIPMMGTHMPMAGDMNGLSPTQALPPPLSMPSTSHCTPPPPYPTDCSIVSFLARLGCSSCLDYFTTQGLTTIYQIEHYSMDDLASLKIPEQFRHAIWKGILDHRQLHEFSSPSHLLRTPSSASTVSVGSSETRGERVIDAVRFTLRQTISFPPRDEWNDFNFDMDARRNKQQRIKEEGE

[8] = biological target: T6, Gluc1-ΔN(14–348) (UniProt O15350); assay: split reporter
T6 sequence: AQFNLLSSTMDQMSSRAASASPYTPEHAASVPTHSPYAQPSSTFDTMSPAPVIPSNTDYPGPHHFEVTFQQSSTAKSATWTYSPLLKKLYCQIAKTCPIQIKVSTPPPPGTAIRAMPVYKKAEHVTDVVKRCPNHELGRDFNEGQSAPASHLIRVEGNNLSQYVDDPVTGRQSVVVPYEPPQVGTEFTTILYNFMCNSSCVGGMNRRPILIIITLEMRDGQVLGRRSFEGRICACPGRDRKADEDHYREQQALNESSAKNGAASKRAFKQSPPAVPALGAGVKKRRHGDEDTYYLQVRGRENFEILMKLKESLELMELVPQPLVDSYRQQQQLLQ

[9] = biological target: T7, Gluc1-ΔN(262–348) (UniProt O15350); assay: split reporter
T7 sequence: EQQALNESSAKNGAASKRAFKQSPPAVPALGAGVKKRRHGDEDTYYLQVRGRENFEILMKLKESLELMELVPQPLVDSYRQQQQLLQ

[10] = biological target: T8, Gluc1-ΔN(1–348) (UniProt O15350); assay: split reporter
T8 sequence: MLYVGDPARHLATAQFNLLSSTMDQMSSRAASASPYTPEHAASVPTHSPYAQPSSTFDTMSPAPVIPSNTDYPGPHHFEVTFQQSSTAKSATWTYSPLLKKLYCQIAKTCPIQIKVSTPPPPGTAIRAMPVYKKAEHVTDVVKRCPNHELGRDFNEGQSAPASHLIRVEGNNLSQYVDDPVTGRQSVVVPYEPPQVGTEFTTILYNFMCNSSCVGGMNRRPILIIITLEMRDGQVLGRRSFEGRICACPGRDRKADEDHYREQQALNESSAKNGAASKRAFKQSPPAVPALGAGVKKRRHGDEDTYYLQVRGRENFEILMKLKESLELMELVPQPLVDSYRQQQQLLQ

Substance: Gluc1-16.E7 (from UniProt P03129 1-98)
binding [3]: binds
binding [4]: binds
binding [5]: binds

Substance: Gluc2-DP1 (from UniProt Q14186 1-410)
binding [6]: no binding
binding [7]: no binding

Substance: Gluc2-E2F4 FL (from UniProt Q16254 1-413)
binding [7]: no binding
binding [8]: binds
binding [9]: binds
binding [10]: binds

Substance: Gluc2-p130 (from UniProt Q08999 1-1139)
binding [6]: no binding
binding [7]: no binding

The remaining lines, values ahead:

binding [1]: binds
binding [2]: binds
Substance: 3xFlag-E2F4 FL (from UniProt Q16254 1-413)

binding [6]: binds
Substance: Gluc2-E2F(1–196) (from UniProt Q16254 1-196) (domain or fragment)

binding [6]: binds
Substance: Gluc2-E2F(89–196) (from UniProt Q16254 89-196) (domain or fragment)
